Values from PubChem BioAssay AID652272 (Drosophila RNAi Screening Center, 2013).

Assay: 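Genes whose knock-down decreases or increases Hedgehog reporter output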 (primary screen)
Cell system: Drosophila clone 8 (Cl8) cells
Reagent: long dsRNA against Drosophila genes
Read-out: 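Firefly light from a Hedgehog-responsive ptc promoter reporter and Renilla reference light, both read on a plate reader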
Reading the numbers: firefly Hh reporter signal: higher = more ptc reporter light; Renilla reference signal: higher = more Renilla control light
Active means: 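Hit when the z-score averaged over two replicates is under -2 or over +3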
Calls: active = hit: reporter lowered or raised; inactive = not a hit
The screen tested about 21,000 reagents; shown is a random part of those that have a named target and a result. Of all reagents, 503 (2.4%) are marked active. 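Raw plate light values, not normalised; calls rest on replicate z-scores that were not deposited; hits include reporter decreases as well as increases.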 No sequences are given here. Not given: the amount of reagent, the time to read-out.

For ppl [DRSC11899], the values are firefly Hh reporter signal, replicate 1 = 1.32e5; firefly Hh reporter signal, replicate 2 = 63847; Renilla reference signal, replicate 1 = 4459; Renilla reference signal, replicate 2 = 2429; inactive.
Silencing of CG12662 [DRSC17865] gave: firefly Hh reporter signal, replicate 1 = 62960; firefly Hh reporter signal, replicate 2 = 2.13e5; Renilla reference signal, replicate 1 = 2232; Renilla reference signal, replicate 2 = 9056; inactive.
Silencing of CG13510 [DRSC04152] came out at: firefly Hh reporter signal, replicate 1 = 1.27e5; firefly Hh reporter signal, replicate 2 = 67354; Renilla reference signal, replicate 1 = 3162; Renilla reference signal, replicate 2 = 6048; inactive.
fray [DRSC16950] showed firefly Hh reporter signal, replicate 1 = 6.50e5; firefly Hh reporter signal, replicate 2 = 98467; Renilla reference signal, replicate 1 = 27993; Renilla reference signal, replicate 2 = 2768; inactive.
Silencing of CG15818 [DRSC02505] came out at: firefly Hh reporter signal, replicate 1 = 1.28e5; firefly Hh reporter signal, replicate 2 = 1.20e5; Renilla reference signal, replicate 1 = 6512; Renilla reference signal, replicate 2 = 4954; inactive.
Against CG8202 [DRSC16396], the entry reads firefly Hh reporter signal, replicate 1 = 92886; firefly Hh reporter signal, replicate 2 = 1.56e5; Renilla reference signal, replicate 1 = 3788; Renilla reference signal, replicate 2 = 8643; inactive.
Against dgt1 [DRSC15301], the entry reads firefly Hh reporter signal, replicate 1 = 1.22e5; firefly Hh reporter signal, replicate 2 = 60644; Renilla reference signal, replicate 1 = 1419; Renilla reference signal, replicate 2 = 915; active.

Ordered by “firefly Hh reporter signal, replicate 1” (highest first): some entries from above.
fray [DRSC16950]: firefly Hh reporter signal, replicate 1 = 6.50e5; firefly Hh reporter signal, replicate 2 = 98467; Renilla reference signal, replicate 1 = 27993; Renilla reference signal, replicate 2 = 2768; activity call = inactive
CG13510 [DRSC04152]: firefly Hh reporter signal, replicate 1 = 1.27e5; firefly Hh reporter signal, replicate 2 = 67354; Renilla reference signal, replicate 1 = 3162; Renilla reference signal, replicate 2 = 6048; activity call = inactive

The results go on.
After knock-down of pk [DRSC06178], the screen gave firefly Hh reporter signal, replicate 1 = 79696; firefly Hh reporter signal, replicate 2 = 42137; Renilla reference signal, replicate 1 = 1834; Renilla reference signal, replicate 2 = 3659; inactive.
Silencing of pk [DRSC07664] came out at: firefly Hh reporter signal, replicate 1 = 1.40e5; firefly Hh reporter signal, replicate 2 = 72707; Renilla reference signal, replicate 1 = 4224; Renilla reference signal, replicate 2 = 7232; inactive.
With knock-down of CG8353 [DRSC03084], the screen gave firefly Hh reporter signal, replicate 1 = 79171; firefly Hh reporter signal, replicate 2 = 34576; Renilla reference signal, replicate 1 = 2355; Renilla reference signal, replicate 2 = 5104; inactive.
Silencing of beat-IIIc [DRSC02438] gave: firefly Hh reporter signal, replicate 1 = 1.12e5; firefly Hh reporter signal, replicate 2 = 1.03e5; Renilla reference signal, replicate 1 = 2868; Renilla reference signal, replicate 2 = 7124; inactive.
After knock-down of beat-IIIc [DRSC02949] the results were firefly Hh reporter signal, replicate 1 = 1.16e5; firefly Hh reporter signal, replicate 2 = 81393; Renilla reference signal, replicate 1 = 2797; Renilla reference signal, replicate 2 = 6963; inactive.
